In PubChem BioAssay AID504847 (National Center for Advancing Translational Sciences (NCATS), 2011):
Where “and” joins values, the source holds several entries; their conditions need not be identical. Identical values can stand only once. Out of some 400,000 compounds screened, about 3,700 (0.93%) were called active. The inconclusive results got no clear call from the source; some entries with a clear call stand among them for comparison. The call rests on the fitted dose curve; in most records, active means well fitted inhibition curve with a large enough effect; inconclusive means small, poorly fitted or top-dose-only effect, or another doubt; inactive means no such curve, though single readings can be large or run the other way. Potencies beside an inconclusive call are fits to weak or partial responses and may not hold up. A structure can be active in one record and inactive in another.

Chains of the proteins cited; added tags and fusions are not shown. Lines headed by an entry give the natural chain unless they say otherwise; changes in a name come on top.
UniProt P11473: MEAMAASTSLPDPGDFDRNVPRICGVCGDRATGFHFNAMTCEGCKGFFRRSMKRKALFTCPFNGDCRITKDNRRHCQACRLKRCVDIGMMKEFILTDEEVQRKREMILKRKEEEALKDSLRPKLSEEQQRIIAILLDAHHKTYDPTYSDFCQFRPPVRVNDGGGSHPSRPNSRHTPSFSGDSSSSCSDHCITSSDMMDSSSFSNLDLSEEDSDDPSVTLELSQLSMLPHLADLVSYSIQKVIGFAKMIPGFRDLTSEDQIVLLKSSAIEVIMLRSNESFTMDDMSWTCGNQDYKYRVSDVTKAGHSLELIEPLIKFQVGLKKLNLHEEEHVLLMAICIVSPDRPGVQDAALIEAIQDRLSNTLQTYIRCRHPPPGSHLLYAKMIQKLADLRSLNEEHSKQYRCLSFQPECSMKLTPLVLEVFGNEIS

biological target: Vitamin D3 receptor (Homo sapiens) (UniProt P11473); test: Inhibitors of the vitamin D receptor (VDR): qHTS; details: VDR-SRC2-3 peptide fluorescence polarization, 2 h; max response, negative = inhibition: active compounds read low
Summary of the method: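 Fluorescence polarization assay measuring small-molecule disruption of VDR binding to the coregulator peptide SRC2-3. Compounds were pin-transferred (23 nl) into the reagent mix and incubated 2 h at room temperature before reading.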
On the % scale 0 is the no-effect control and ±100 the full control effect; potency means the concentration at half of the fitted maximal effect.

Row | Structure (SMILES) | max response, negative = inhibition | Potency
1 | O=C(Oc1c(Cl)cc(Cl)c2ccccc12)N1CCCCC1 | inactive: -0.321% | –
2 | N=C1/C(=C\c2ccc(OC(=O)c3ccccc3Cl)cc2)C(=O)N=C2SC(N3CCOCC3)=NN12 | – | inconclusive: 79.4 µM [inhibitor, partial curve]
3 | CC(C)=CCCC1(C)C=Cc2c(O)c3c(c(CC=C(C)C)c2O1)OC12C(=CC4CC1C(C)(C)OC2(C/C=C(/C)C(=O)O)C4=O)C3=O (configuration not stated) | – | active: 2.24 µM
4 | CC(C)CCNC(=O)c1c(N)n(Cc2ccc3c(c2)OCO3)c2nc3ccccc3nc12 | – | active: 89.1 µM
5 | Cc1cccc(N2C(=O)NC(=O)/C(=C\C=C\c3ccco3)C2=O)c1 | – | inconclusive: 25.1 µM [inhibitor, partial curve]
6 | O=C(CCN1CC2CCC(CC2)C1)c1cccs1 | – | active: 44.7 µM
7 | COc1ccc(N2C(=O)/C(=C/C=C/c3ccccc3[N+](=O)[O-])C(=O)NC2=S)cc1 | – | active: 22.4 µM
8 | COCCCn1c(N)c(C(=O)NCCC(C)C)c2nc3ccccc3nc21 | – | inconclusive: 100 µM [inhibitor, single point]
9 | O=c1[nH]sc2cc(F)ccc12 | – | active: 7.08 µM
10 | O=C1NC(=O)N(c2ccc3c(c2)OCO3)C(=O)/C1=C\c1ccc(-c2ccccc2C(=O)O)o1 | – | inconclusive: 50.1 µM [inhibitor, partial curve, poor fit]
11 | c1ccc(N2CCCC3(CCNCC3)C2)nc1 | – | active: 50.1 µM
12 | CCNc1nc(Cl)nc(NCC)n1 | inactive: 3.15% | –
13 | S=C(S)N1CCNCC1 | – | inconclusive: 50.1 µM [inhibitor, partial curve]
14 | NC(=O)CI | – | active: 79.4 µM
15 | CCOP(=S)(OCC)SCn1c(=O)oc2cc(Cl)ccc21 | – | active: 35.5 µM
16 | CN1CCC(O)(c2ccc(F)cc2)C(C(=O)c2ccc(F)cc2)C1 (configuration not stated) | – | inconclusive: 50.1 µM [inhibitor, partial curve]
17 | CCOC(=O)C(NS(=O)(=O)c1ccc(C)cc1)(C(F)(F)F)P(=O)(OCC(C)C)OCC(C)C (configuration not stated) | – | inconclusive: 70.8 µM [inhibitor, partial curve]
18 | CC1COC2=C1C(=O)C(=O)c1c2ccc2c1CCCC2(C)C (configuration not stated) | – | active: 7.08 µM
19 | O=C(Nc1ccc(Br)cc1C(=O)O)c1ccc2c(c1)C(=O)N(Cc1ccccc1)C2=O | – | inconclusive: 89.1 µM [inhibitor, single point]
20 | C=CCN1C(=O)/C(=C/c2ccc3c(c2)CCCN3CCC)C(=O)NC1=S | – | inconclusive: 70.8 µM [inhibitor, partial curve, poor fit]
21 | N#CC(C#N)=NNc1ccc(S(N)(=O)=O)cc1 | – | inconclusive: 17.8 µM [inhibitor, partial curve]
22 | CCCN1CCc2cc(O)cc3c2C1Cc1ccc(O)c(O)c1-3 (configuration not stated) | – | active: 25.1 µM
23 | CN1C(=O)C(Cc2ccsc2)C(=O)N(C)C1=O | – | inconclusive: 79.4 µM [inhibitor, partial curve]

Row | Structure (SMILES) | max response, negative = inhibition | Potency
24 | O=C1NC(=O)C(=Cc2ccc(-c3ccc(S(=O)(=O)N4CCOCC4)cc3)o2)C(=O)N1 | – | active: 22.4 µM
25 | CCOc1cc(OP(=S)(OC)OC)nc(CC)n1 | – | active: 22.4 µM
26 | O[N+]1=CC=CCC1=S.On1ccccc1=S.[Zn] | – | active: 44.7 µM
27 | O=C(CNC(=O)c1ccccc1)NCC(=O)OCC(=O)c1ccc([N+](=O)[O-])cc1 | – | inconclusive: 39.8 µM [inhibitor, partial curve]
28 | c1ccc([Se]c2c(-c3ccccc3)[se]c3ccccc23)cc1 | – | active: 63.1 µM
29 | O=C(Cc1ccccc1)N1CCN(CCCc2ccccc2)CC1 | inactive: 18.2% | –
30 | COc1cccc(N2C(=O)NC(=O)/C(=C/c3ccc4c(c3)Cc3ccccc3-4)C2=O)c1 | – | inconclusive: 50.1 µM [inhibitor, partial curve, poor fit]
31 | COc1ccc(CN2C(=O)NC(=O)/C(=C\c3cc(OC)c(OC)c(OC)c3)C2=O)cc1 | – | active: 50.1 µM
32 | C=CCn1c(C)c(C=C2C(=O)NC(=O)NC2=O)c2ccccc21 | – | inconclusive: 89.1 µM [inhibitor, partial curve]
33 | CC(=O)OC1CCC2(C)C3=C(CCC2C1(C)C)[C@@]1(C)CCC(C(C)CCC=C(C)C)[C@@]1(C)CC3 (some centres not stated) | – | inconclusive: 56.2 µM [inhibitor, partial curve, poor fit]
34 | C[C@@H]1O[C@H](C[N+](C)(C)C)C[C@H]1O | inactive: -3.96% | –
35 | Cn1cccc1/C=C1\C(=O)NC(=O)N(Cc2ccccc2)C1=O | – | inconclusive: 35.5 µM [inhibitor, partial curve, poor fit]
36 | COC(=O)C1=CO[C@@H](C)[C@@H]2CN3CCc4c([nH]c5cc(OC)ccc45)[C@@H]3C[C@H]12 | – | active: 79.4 µM
37 | N[C@@H](Cc1cc(I)c(O)c(I)c1)C(=O)O | – | inconclusive: 50.1 µM [inhibitor, partial curve]
38 | O=C1C=CC2C3C(=O)N(c4ccccc4)C(=O)C3C1N2Cc1ccccc1 (configuration not stated) | – | inconclusive: 11.2 µM [inhibitor, partial curve, poor fit]
39 | CCOP(=S)(OCC)Oc1cc(C)oc(=O)c1 | – | active: 79.4 µM
40 | Cc1ccsc1/C=C1\C(=O)NC(=S)N(C)C1=O | – | inconclusive: 44.7 µM [inhibitor, partial curve, poor fit]
41 | Cc1nn(-c2ccncc2)c2c1C(=O)CC(C)(C)C2Br (configuration not stated) | – | inconclusive: 100 µM [inhibitor, partial curve, poor fit]
42 | O=C1NC(=S)NC(=O)C1c1ccccc1 | – | inconclusive: 50.1 µM [inhibitor, partial curve, poor fit]
43 | CCCCC/C=C\C/C=C\C/C=C\C/C=C\CCCC(=O)N[C@H](C)CO | – | active: 35.5 µM
44 | OCCOc1ccccc1 | inactive: 3.77% and inactive: -19.3% | –
45 | O=C(Nc1cccc(F)c1)N1CC2(CCNCC2)C1 | – | active: 39.8 µM
46 | CCOP(=O)(/C=C(\Cl)c1ccccc1)C(O)c1ccc(F)cc1 (configuration not stated) | – | inconclusive: 79.4 µM [inhibitor, partial curve]

Row | Structure (SMILES) | max response, negative = inhibition | Potency
47 | N#CC(C#N)=NNc1ccc(S(=O)(=O)N2CCCC2)cc1 | – | inconclusive: 28.2 µM [inhibitor, full curve, poor fit]
48 | C=CCN1CC[C@]23c4c5ccc(O)c4O[C@H]2C(=O)CC[C@@]3(O)[C@H]1C5 | inactive: 3.73% and inactive: 8.02% and inactive: -4.1% | –
49 | Nc1ncnc2c1ncn2[C@@H]1O[C@H](COP(=O)(O)OP(=O)(O)OP(=O)(O)O)[C@H]2OC3(O[C@H]21)C([N+](=O)[O-])=CC(=[N+]([O-])[O-])C=C3[N+](=O)[O-] (some centres not stated) | – | inconclusive: 39.8 µM [inhibitor, partial curve]
50 | C[C@H](CCC(=O)O)C[C@H](C)C[C@H](C)C(=O)/C=C(\O)[C@H](C)C[C@H](C)C/C=C/[C@@H](C)[C@@H](O)[C@@H](C)[C@@H](O)C[C@@H]1CC[C@@](C)([C@H]2CC[C@@](C)([C@@H](C)O)O2)O1 | – | inconclusive: 89.1 µM [inhibitor, single point]
51 | CCOC(=O)C1=Nc2ccccc2/C1=C\c1c(O)n(C)c(=O)n(C)c1=O | – | inconclusive: 12.6 µM [inhibitor, partial curve]
52 | Cc1ccsc1C(=O)C1CCCN(Cc2c(C)nn(C(C)C)c2C)C1 (configuration not stated) | inactive: -10.4% | –
53 | CCN(CCCNS(=O)(=O)c1ccc2c(c1)oc(=O)n2C)c1cccc(C)c1 | – | inconclusive: 89.1 µM [inhibitor, partial curve, poor fit]
54 | CCOP(=S)(OCC)SCSP(=S)(OCC)OCC | – | inconclusive: 89.1 µM [inhibitor, single point]
55 | CCCCCCCSc1cc(OC)c(CCNC)cc1OC | inactive: 17.7% | –
56 | O=C1/C(=C\c2ccc([N+](=O)[O-])cc2)N2CCC1CC2 | – | inconclusive: 79.4 µM [inhibitor, single point]
57 | Ic1ccccc1CN[C@@H]1C2CCN(CC2)[C@@H]1C(c1ccccc1)c1ccccc1 | inactive: 1.35% | –
58 | N#CC(C#N)=Cc1ccc(-c2ccccc2F)o1 | – | inconclusive: 89.1 µM [inhibitor, single point]
59 | O=C1NC(=O)N(CCNc2ncc(C(F)(F)F)cc2Cl)C(=O)C1Cc1ccc(Cl)cc1 (configuration not stated) | – | inconclusive: 70.8 µM [inhibitor, partial curve, poor fit]
60 | CCCCN1C(=O)/C(=C\c2ccco2)C(=O)N(CCc2ccccc2)C1=O | inactive: 148% | –
61 | COc1cc(CC(=O)OCC2=C[C@H]3[C@@H]4C(C)(C)[C@]4(OC(C)=O)[C@H](OC(=O)Cc4ccccc4)[C@@H](C)[C@]3(O)[C@@H]3C=C(C)C(=O)[C@@]3(O)C2)ccc1O | inactive: -9.85% | –
62 | O=C(O)c1ccc(-c2ccc3cc(C45CC6CC(CC(C6)C4)C5)c(O)cc3c2)cc1 | – | active: 56.2 µM
63 | C=CCN1C(=O)NC(=O)C(Cc2ccc(OC)c(OC)c2)C1=O (configuration not stated) | – | inconclusive: 50.1 µM [inhibitor, partial curve, poor fit]
64 | CN[C@@H]1C[C@@H](c2ccc(Cl)c(Cl)c2)c2ccccc21 | – | inconclusive: 89.1 µM [inhibitor, single point]
65 | CC(C)OCCCNC(=O)c1c(N)n(CC2CCCO2)c2nc3ccccc3nc12 (configuration not stated) | – | inconclusive: 89.1 µM [inhibitor, single point]
66 | O=c1nc(/C=C/c2ccc(Cl)cc2Cl)cc(C(F)(F)F)[nH]1 | – | active: 10 µM
67 | O=C1NC(=O)N(Cc2ccco2)C(=O)/C1=C/c1ccc(-c2cccc([N+](=O)[O-])c2)o1 | – | active: 14.1 µM
